According to article PMC12431657, “Discovery and mechanistic insights of dibenzoylmethane as a broad spectrum inhibitor of coronavirus” (PLOS Pathogens, 2025):
Where a name gives a salt, the structure may show the parent alone. Read-outs that look alike come from different tables or passages of the source. Screen size: about 3,300 compounds; about 95 (3%) showed an effect of 50% or more. The list shows a part of the results.

System: HCoV-229E
Parameters: species or system Huh-7; HTS, protection from HCoV-229E induced cell death, luminescent cell viability (CellCounting-Lite 2.0), inhibition rate
Conditions: 24 h post infection, 1 h compound pre-incubation, 10 µM, inhibitor

Structure (SMILES): CC(=O)N[C@@H](CC(N)=O)C(=O)O [(S)-2-acetamido-4-amino-4-oxobutanoic acid]
- 229E Inhibition rate: 14.8%

Structure (SMILES): C[C@H]1[C@H]2CC[C@H]3[C@@H]4CC=C5C[C@@H](N(C)C)CC[C@]5(C)[C@H]4CC[C@]23CN1C [Conessine]
- 229E Inhibition rate: 41.8%

Structure (SMILES): O=C(O)C1CCCCC1 [Cyclohexanecarboxylic acid]
- 229E Inhibition rate: 11.6%

Structure (SMILES): COc1cc2ccc(=O)oc2cc1OC [Scoparone]
- 229E Inhibition rate: 12%

Structure (SMILES): O=C(O)c1cc(O)ccc1O [2,5-Dihydroxybenzoic acid]
- 229E Inhibition rate: 16.7%

Structure (SMILES): O=C(/C=C/c1ccc(O)c(O)c1)c1ccc(O)c(O)c1O [Okanin]
- 229E Inhibition rate: 16.1%

Structure (SMILES): CCCCCCCCC1=C(CCCCCCCC(=O)O)C1 [Sterculic acid]
- 229E Inhibition rate: 20%

Structure (SMILES): CC(CCC(=O)O)CC(=O)O (stereo not shown) [3-Methyladipic acid]
- 229E Inhibition rate: 15%

Structure (SMILES): C[n+]1cccc(C(=O)[O-])c1 [Trigonelline]
- 229E Inhibition rate (229E Inhibition rate, 24 h): 7.5%

Structure (SMILES): C[C@H](O)[C@H](O)[C@H]1CNc2nc(N)[nH]c(=O)c2N1 [Tetrahydrobiopterin]
- 229E Inhibition rate: 16.1%

Structure (SMILES): CC1=CC[C@@]23C[C@@H]1C(C)(C)[C@@H]2CC[C@H]3C [(-)-Cedrene]
- 229E Inhibition rate: 15.2%

Structure (SMILES): C[C@H]1CC[C@@H](C(C)(C)O)CC2=C1CC[C@@H]2C [Guaiol]
- 229E Inhibition rate: 7.2%

Structure (SMILES): CC[C@H](CC[C@@H](C)[C@H]1CC[C@H]2[C@@H]3CC=C4C[C@@H](O[C@@H]5O[C@H](CO)[C@@H](O)[C@H](O)[C@H]5O)CC[C@]4(C)[C@H]3CC[C@]12C)C(C)C [Daucosterol]
- 229E Inhibition rate: 5.6%

Structure (SMILES): CC[C@]1(O)C[C@@H]2CN(CCc3c([nH]c4ccccc34)[C@@](C(=O)OC)(c3cc4c(cc3OC)N(C)[C@H]3[C@@](O)(C(=O)OC)[C@H](OC(C)=O)[C@]5(CC)C=CCN6CC[C@]43[C@@H]65)C2)C1 [Vinblastine (sulfate)]
- 229E Inhibition rate: 30.6%

Structure (SMILES): Nc1nc(=O)n([C@H]2C[C@H](O)[C@@H](CO)O2)cc1CO [5-Hydroxymethyl-2’-deoxycytidine]
- 229E Inhibition rate: 0%

Structure (SMILES): C[C@H]1CCCC(=O)CCCCCc2cc(O)cc(O)c2C(=O)O1 [Zearalanone]
- 229E Inhibition rate: 44.1%

Structure (SMILES): O=C(/C=C/c1ccc(O)cc1)c1ccccc1 [4'-Hydroxychalcone]
- 229E Inhibition rate (229E Inhibition rate, 24 h): 41.2%

Structure (SMILES): CC(=O)NCCCCCN [N-(5-Aminopentyl)acetamide]
- 229E Inhibition rate: 61.9%

Structure (SMILES): NCCCCCN [Pentane-1,5-diamine (dihydrochloride)]
- 229E Inhibition rate: 26.5%

Structure (SMILES): CC(=O)NCCc1ccc(O)c(O)c1 [N-acetyldopamine]
- 229E Inhibition rate: 7.1%

Structure (SMILES): CSCCC(O)C(=O)O (stereo not shown) [Calcium 2-hydroxy-4-(methylthio)butanoate]
- 229E Inhibition rate: 18.3%

Structure (SMILES): COc1cc(C(=O)O)cc(O)c1O [3-O-Methylgallic acid]
- 229E Inhibition rate: 30.8%

Structure (SMILES): C[C@@H]1CC[C@@]2(OC1)O[C@H]1C[C@H]3[C@@H]4CC[C@H]5C[C@@H](O)[C@H](O)C[C@]5(C)[C@H]4CC[C@]3(C)[C@H]1[C@@H]2C [Gitogenin]
- 229E Inhibition rate: 4.9%

Structure (SMILES): O=C(O)/C=C/c1ccccc1O [2-Hydroxycinnamic acid]
- 229E Inhibition rate: 20.2%

Structure (SMILES): CCCCCCCCO [1-Octanol]
- 229E Inhibition rate: 13.9%

Structure (SMILES): OC1OC[C@@H](O)[C@H](O)[C@@H]1O (stereo partly drawn) [D-Lyxose]
- 229E Inhibition rate: 44.8%

Structure (SMILES): C[C@H]1[C@H](C)CC[C@]2(C)CC[C@]3(C)C(=CC(=O)[C@@H]4[C@@]5(C)CC[C@@H](O)[C@](C)(C(=O)O)[C@@H]5CC[C@]43C)[C@H]12 [11-Keto-beta-boswellic acid]
- 229E Inhibition rate: 18.8%

Structure (SMILES): CC(=O)O[C@@]12CO[C@@H]1C[C@H](O)[C@@]1(C)C(=O)[C@H](O)C3=C(C)[C@@H](O)C[C@@](O)([C@@H](OC(=O)c4ccccc4)[C@H]21)C3(C)C [10-Deacetylbaccatin III]
- 229E Inhibition rate: 13.7%

Structure (SMILES): COc1cc(CC(=O)O)ccc1O [Homovanillic acid]
- 229E Inhibition rate: 16.1%

Structure (SMILES): COc1cc(/C=C/C(=O)O[C@H]2[C@H](O)[C@@H](CO)O[C@@]2(CO)O[C@H]2O[C@H](CO)[C@@H](O)[C@H](O)[C@H]2O)cc(OC)c1OC [Glomeratose A]
- 229E Inhibition rate: 12.1%

Structure (SMILES): COc1c(OC)c2occc2c2oc(=O)ccc12 [Pimpinellin]
- 229E Inhibition rate: 18.3%

Structure (SMILES): CC(C)=CCC/C(C)=C/COc1ccc2ccc(=O)oc2c1 [Auraptene]
- 229E Inhibition rate: 10.5%

Structure (SMILES): O=C1c2ccccc2C(=O)c2cc(CO)ccc21 [2-(Hydroxymethyl)anthraquinone]
- 229E Inhibition rate: 22.9%

Structure (SMILES): C[C@]1(C(=O)O)CCC[C@]2(C)c3cc(O)ccc3CC[C@@H]12 [Podocarpic acid]
- 229E Inhibition rate: 23.2%

Structure (SMILES): CNCC(O)c1ccc(O)cc1 (stereo not shown) [Synephrine]
- 229E Inhibition rate (229E Inhibition rate, 24 h): 0%

Structure (SMILES): CO[C@H]1C(=O)[C@]2(C)[C@@H](OC)C[C@H]3OC[C@@]3(OC(C)=O)[C@H]2[C@H](OC(=O)c2ccccc2)[C@]2(O)C[C@H](OC(=O)[C@H](O)[C@@H](NC(=O)OC(C)(C)C)c3ccccc3)C(C)=C1C2(C)C [Cabazitaxel]
- 229E Inhibition rate: 12.8%

Structure (SMILES): C[C@@H]1CC[C@@]2(OC1)O[C@H]1C[C@H]3[C@@H]4CC=C5C[C@@H](O[C@@H]6O[C@H](CO)[C@@H](O)[C@H](O[C@@H]7O[C@H](CO)[C@@H](O)[C@H](O)[C@H]7O)[C@H]6O[C@@H]6O[C@@H](C)[C@H](O)[C@@H](O)[C@H]6O)CC[C@]5(C)[C@H]4CC[C@]3(C)[C@H]1[C@@H]2C [Gracillin]
- 229E Inhibition rate: 2.8%

Structure (SMILES): CCCCCc1ccco1 [2-Pentylfuran]
- 229E Inhibition rate: 25.3%

Structure (SMILES): COc1cc2ccc(=O)oc2c(O)c1OC [Fraxidin]
- 229E Inhibition rate: 12.9%

Structure (SMILES): CC(=O)NCCCC[C@H](N)C(=O)O [Nepsilon-Acetyl-L-lysine]
- 229E Inhibition rate: 0%

Structure (SMILES): COc1cc2c(cc1OC)[C@H]1[C@@H](C)c3ccc(OC)c(OC)c3CN1CC2 [Corydaline]
- 229E Inhibition rate: 6.8%

Structure (SMILES): CC1(C)C=Cc2c(ccc(C(=O)/C=C/c3ccc(O)cc3)c2O)O1 [4-Hydroxylonchocarpin]
- 229E Inhibition rate (229E Inhibition rate, 24 h): 14.6%

Structure (SMILES): COC(=O)[C@@]12OC[C@]34[C@H]([C@@H](O)[C@@H]1O)[C@@]1(C)CC(=O)C(O)=C(C)[C@@H]1C[C@H]3OC(=O)[C@H](OC(=O)CC(C)C)[C@@H]24 [Bruceine A]
- 229E Inhibition rate: 3.6%
